Here are results for five molecules from paper doi:10.1101/2023.08.20.554005.

Amino acid sequences for entries named in this document (tags omitted).
UniProt O75376: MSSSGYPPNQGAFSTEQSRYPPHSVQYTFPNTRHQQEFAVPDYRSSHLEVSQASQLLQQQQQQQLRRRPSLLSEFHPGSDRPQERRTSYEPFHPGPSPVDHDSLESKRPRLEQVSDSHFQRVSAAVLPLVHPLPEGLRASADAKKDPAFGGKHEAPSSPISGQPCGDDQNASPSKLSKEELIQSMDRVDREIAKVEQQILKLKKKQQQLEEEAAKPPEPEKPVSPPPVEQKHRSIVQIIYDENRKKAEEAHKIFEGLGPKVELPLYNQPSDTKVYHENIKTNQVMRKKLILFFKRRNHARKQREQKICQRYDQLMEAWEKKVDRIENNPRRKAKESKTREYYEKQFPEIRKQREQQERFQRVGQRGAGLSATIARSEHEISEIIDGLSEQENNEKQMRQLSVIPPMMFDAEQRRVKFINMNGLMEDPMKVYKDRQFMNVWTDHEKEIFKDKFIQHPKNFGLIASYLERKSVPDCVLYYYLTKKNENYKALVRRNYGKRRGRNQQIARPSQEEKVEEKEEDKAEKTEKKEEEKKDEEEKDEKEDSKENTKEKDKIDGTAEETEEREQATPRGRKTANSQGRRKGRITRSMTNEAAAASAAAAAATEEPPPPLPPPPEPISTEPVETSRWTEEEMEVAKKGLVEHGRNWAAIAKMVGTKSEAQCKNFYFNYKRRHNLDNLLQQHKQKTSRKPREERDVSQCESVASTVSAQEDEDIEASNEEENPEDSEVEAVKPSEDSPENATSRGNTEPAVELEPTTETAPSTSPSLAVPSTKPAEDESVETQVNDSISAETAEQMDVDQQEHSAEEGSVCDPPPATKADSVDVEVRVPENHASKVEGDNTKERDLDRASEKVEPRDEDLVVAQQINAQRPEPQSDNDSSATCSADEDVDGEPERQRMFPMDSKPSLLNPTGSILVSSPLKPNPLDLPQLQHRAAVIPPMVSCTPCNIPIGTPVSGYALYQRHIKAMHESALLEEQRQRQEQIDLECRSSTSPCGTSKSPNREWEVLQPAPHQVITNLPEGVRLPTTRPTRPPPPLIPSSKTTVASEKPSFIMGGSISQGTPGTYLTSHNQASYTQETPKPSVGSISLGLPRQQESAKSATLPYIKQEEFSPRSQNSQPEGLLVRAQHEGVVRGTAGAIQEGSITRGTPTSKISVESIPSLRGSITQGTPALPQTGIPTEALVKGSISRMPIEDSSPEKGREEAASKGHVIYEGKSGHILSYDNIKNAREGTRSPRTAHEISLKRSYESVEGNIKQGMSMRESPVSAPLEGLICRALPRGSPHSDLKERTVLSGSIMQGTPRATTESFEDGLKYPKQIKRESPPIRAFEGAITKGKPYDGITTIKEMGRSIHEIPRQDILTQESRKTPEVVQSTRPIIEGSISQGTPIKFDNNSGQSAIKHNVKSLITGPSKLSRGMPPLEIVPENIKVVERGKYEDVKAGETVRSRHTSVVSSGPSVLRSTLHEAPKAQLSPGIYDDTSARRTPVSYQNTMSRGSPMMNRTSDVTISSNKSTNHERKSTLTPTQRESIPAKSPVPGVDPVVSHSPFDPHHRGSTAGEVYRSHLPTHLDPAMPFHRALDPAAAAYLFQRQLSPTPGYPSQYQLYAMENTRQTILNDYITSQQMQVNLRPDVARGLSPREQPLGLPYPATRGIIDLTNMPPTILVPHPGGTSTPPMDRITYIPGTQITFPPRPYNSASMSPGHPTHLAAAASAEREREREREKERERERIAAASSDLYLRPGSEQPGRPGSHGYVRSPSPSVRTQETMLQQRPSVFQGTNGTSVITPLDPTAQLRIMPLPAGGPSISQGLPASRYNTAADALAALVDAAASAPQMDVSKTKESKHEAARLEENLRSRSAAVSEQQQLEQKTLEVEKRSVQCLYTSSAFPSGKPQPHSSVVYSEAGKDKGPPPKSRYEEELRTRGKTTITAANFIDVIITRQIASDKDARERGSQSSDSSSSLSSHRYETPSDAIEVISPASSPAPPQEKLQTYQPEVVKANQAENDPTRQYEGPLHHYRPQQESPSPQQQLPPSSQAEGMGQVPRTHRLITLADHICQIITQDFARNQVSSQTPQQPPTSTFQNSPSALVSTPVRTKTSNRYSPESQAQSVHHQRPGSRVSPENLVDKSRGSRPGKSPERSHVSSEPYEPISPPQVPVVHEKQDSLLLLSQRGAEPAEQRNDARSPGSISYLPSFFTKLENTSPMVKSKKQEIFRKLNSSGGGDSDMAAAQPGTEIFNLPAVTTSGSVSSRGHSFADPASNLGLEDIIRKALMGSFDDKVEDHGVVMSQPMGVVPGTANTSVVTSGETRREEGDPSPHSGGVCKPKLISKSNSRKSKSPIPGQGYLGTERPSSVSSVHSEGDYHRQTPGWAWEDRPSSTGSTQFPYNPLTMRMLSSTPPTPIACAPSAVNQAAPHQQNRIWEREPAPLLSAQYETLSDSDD
UniProt P51532: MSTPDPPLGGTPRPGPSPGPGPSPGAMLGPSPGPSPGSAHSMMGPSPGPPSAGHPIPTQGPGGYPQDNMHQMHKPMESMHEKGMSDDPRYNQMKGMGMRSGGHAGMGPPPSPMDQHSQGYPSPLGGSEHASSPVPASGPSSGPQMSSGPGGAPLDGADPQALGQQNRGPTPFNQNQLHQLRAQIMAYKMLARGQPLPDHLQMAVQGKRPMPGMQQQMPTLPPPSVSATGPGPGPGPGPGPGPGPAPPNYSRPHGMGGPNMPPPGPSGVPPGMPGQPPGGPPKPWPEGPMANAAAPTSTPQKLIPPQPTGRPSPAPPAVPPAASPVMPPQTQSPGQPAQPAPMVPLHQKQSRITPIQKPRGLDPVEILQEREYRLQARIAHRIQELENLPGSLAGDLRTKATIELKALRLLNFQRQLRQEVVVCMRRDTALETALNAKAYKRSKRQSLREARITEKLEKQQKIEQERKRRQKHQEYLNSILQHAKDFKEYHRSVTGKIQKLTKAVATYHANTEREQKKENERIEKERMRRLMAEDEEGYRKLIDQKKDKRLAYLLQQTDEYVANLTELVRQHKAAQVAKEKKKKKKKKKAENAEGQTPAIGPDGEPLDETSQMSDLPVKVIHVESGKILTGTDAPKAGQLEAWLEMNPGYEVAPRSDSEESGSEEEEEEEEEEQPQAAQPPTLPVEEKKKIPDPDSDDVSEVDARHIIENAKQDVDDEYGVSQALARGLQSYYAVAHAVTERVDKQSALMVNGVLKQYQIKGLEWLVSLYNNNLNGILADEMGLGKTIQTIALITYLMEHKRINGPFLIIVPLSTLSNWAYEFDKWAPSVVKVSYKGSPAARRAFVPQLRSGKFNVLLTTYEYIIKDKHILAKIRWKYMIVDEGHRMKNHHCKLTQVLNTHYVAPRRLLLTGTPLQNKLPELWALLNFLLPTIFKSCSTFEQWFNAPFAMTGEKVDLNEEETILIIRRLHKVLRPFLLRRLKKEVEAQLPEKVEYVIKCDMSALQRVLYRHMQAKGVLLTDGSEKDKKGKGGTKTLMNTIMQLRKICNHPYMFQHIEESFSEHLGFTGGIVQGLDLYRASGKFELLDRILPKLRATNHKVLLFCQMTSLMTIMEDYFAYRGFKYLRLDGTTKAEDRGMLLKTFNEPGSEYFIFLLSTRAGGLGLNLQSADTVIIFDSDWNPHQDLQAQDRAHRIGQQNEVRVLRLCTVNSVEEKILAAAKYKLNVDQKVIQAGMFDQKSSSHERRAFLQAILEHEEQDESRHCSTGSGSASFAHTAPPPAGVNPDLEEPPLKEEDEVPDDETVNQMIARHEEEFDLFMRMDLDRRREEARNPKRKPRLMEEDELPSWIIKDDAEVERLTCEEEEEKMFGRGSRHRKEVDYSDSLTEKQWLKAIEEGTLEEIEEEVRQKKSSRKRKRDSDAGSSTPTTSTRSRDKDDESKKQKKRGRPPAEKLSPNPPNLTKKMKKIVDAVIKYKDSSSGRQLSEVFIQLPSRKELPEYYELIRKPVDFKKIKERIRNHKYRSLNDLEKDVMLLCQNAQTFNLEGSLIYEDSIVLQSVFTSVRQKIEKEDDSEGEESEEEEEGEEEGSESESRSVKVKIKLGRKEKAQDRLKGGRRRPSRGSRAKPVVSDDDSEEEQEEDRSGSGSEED
UniProt P51531: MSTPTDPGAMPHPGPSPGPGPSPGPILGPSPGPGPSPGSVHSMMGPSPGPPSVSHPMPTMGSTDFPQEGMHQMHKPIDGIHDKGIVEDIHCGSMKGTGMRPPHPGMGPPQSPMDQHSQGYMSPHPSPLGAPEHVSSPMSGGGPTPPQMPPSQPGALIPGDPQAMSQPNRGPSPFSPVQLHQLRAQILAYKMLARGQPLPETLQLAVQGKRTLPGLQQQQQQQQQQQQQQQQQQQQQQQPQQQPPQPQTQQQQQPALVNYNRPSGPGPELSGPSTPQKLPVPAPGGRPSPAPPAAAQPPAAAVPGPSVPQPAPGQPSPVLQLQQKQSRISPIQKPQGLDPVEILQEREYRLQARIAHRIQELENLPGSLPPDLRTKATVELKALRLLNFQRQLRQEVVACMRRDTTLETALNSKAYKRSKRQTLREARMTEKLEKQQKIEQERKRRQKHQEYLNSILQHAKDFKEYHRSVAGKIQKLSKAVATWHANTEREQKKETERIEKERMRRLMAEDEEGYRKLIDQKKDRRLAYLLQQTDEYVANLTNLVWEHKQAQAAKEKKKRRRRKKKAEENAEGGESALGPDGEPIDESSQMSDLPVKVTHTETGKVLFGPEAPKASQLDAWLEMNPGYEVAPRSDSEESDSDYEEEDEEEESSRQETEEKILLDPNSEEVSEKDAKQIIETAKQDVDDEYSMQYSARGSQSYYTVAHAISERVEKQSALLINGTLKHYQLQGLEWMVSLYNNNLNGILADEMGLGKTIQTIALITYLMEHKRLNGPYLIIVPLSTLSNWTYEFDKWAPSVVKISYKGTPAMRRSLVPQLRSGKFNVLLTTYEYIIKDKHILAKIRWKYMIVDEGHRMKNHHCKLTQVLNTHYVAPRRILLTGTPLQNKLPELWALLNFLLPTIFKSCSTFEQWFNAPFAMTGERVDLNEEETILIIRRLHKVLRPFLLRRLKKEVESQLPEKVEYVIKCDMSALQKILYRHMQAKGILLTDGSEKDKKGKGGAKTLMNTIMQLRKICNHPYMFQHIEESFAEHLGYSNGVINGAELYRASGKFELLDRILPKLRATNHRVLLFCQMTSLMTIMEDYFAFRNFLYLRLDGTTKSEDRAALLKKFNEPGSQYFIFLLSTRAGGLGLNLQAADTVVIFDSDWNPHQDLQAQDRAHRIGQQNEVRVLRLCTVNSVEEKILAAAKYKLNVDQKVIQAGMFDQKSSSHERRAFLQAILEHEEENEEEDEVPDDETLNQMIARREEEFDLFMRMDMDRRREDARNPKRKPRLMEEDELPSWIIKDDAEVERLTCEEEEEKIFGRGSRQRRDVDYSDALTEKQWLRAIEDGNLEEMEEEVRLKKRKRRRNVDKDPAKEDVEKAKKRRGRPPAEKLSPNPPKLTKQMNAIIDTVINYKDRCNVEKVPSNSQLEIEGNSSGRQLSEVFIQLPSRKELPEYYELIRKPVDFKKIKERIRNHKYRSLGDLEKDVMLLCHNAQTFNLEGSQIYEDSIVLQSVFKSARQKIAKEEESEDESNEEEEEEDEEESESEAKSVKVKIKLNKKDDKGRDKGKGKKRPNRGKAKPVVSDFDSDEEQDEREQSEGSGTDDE
UniProt P46937: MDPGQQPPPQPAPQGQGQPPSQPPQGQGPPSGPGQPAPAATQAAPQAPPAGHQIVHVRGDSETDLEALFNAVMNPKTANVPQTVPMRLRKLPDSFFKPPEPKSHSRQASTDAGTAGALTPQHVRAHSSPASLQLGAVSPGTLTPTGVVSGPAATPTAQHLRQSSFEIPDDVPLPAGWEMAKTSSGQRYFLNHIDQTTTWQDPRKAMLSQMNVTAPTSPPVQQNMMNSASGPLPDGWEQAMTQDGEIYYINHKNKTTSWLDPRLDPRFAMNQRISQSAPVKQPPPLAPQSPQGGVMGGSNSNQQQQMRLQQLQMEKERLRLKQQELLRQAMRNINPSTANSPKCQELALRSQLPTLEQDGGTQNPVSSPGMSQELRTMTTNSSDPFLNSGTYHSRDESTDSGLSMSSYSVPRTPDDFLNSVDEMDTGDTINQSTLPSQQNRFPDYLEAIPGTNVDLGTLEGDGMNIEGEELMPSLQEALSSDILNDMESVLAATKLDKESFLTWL

For assay [1], the target named is BirA*-Flag JUN WT (UniProt P05412). The assay can be described thus: proximity labelling.
The target of assay [2] is T1, BirA*-Flag JUN WT, P05412.
T1 chain: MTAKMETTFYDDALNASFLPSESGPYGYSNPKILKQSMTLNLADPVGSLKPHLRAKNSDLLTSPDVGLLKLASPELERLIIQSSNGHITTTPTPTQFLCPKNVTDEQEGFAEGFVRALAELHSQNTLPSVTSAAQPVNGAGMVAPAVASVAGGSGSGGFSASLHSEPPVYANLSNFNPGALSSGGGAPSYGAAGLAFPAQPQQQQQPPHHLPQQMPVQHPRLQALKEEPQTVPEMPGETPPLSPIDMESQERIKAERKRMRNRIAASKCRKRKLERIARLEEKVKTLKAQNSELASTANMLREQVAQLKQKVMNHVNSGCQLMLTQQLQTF
The assay can be described thus: proximity labelling. To be noted: remark: other sources report otherwise.

No constants are given. Whether binding was seen depends on the method and setting. In cells and extracts the contact can be indirect. Here binding means that the protein was enriched with, or labelled near, the bait; the list need not be complete. For some assays here: Where a sequence is shown, tags or fusion partners need not be part of it.

With NCOR1 (from UniProt O75376 1-2440), the binding result in assay [1] is reported as “binds”.

In the case of SMARCA4 (from UniProt P51532 1-1647), in assay [1], the binding entry was “binds”.

As for SMARCA2 (from UniProt P51531 1-1590), the binding entry in assay [1] is “binds”.

As to “Yes-associated protein (YAP) (from UniProt P46937 1-504)”, the binding result in assay [1] is reported as “binds”.

B1: FOSB, P53539 1-338 (protein)
chain: MFQAFPGDYDSGSRCSSSPSAESQYLSSVDSFGSPPTAAASQECAGLGEMPGSFVPTVTAITTSQDLQWLVQPTLISSMAQSQGQPLASQPPVVDPYDMPGTSYSTPGMSGYSSGGASGSGGPSTSGTTSGPGPARPARARPRRPREETLTPEEEEKRRVRRERNKLAAAKCRNRRRELTDRLQAETDQLEEEKAELESEIAELQKEKERLEFVLVAHKPGCKIPYEEGPGPGPLAEVRDLPGSAPAKEDGFSWLLPPPPPPPLPFQTSQDAPPNLTASLFTHSEVQVLGDPFPVVNPSYTSSFVLTCPEVSAFAGAQRTSGSDQPSDPLNSPSLLAL
With B1, the binding result in assay [2] is “binds”.
